Data source: PubChem BioAssay AID1224828 (NIAID, 2016)

Purpose: 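Find genes required for NF-kappaB p65 moving into the nucleus after LPS in mouse macrophages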 (primary screen)
Cell system: mouse RAW264.7 G9 macrophage reporter cells (GFP-p65, Tnf promoter-mCherry)
Reagent: siRNA pool against mouse genes, 100 nM
Duration: 2 days siRNA transfection, then 40 min LPS before fixation
Treatment: LPS (Salmonella minnesota R595) at 10 ng/ml
Measured: 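Imaged p65 nuclear translocation ratio, normalised to the plate median, converted to robust z-scores and averaged across two replicates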
Direction: p65 translocation robust z-score: higher = more nuclear NF-kappaB p65 after LPS than the plate median; nuclear/cytoplasmic p65 ratio: higher = more nuclear NF-kappaB p65
Rule for the call: 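Active if robust z is above 3.3 (negative regulators) or below -1.56, the Tlr4 control median (positive regulators); activity score 50 or more; control wells not called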
Meaning of the calls: active = hit (p65 shift raised or lowered); inactive = no clear change
The whole screen tested about 17,000 reagents; this is a random part of them. 762 of them (4.5%) count as active. 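Active calls include both raised and lowered p65 entry, mostly lowered; wells with fewer than 50 cells lack a z-score.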 Raw values are not corrected between plates. Reagents against one gene are numbered here.

Gene	reagent	p65 translocation robust z-score	nuclear/cytoplasmic p65 ratio, rep 1	nuclear/cytoplasmic p65 ratio, rep 2	low cell count flag	Call
Smad1	1	-2.29	1.28	1.16	enough cells to score	active
Rhox5	1	-3.14	1.01	0.956	enough cells to score	active
Aqp9	1	0.52	1.74	1.65	enough cells to score	inactive
Foxn4	1	-0.49	1.51	1.41	enough cells to score	inactive
Zmym1	1	1.52	1.42	1.42	enough cells to score	inactive
Tmem101	1	0.36	1.46	1.5	enough cells to score	inactive
Zc3h12d	1	0.47	1.61	1.64	enough cells to score	inactive
Or8b50	1		1.54	1.13	fewer than 50 cells per well; well left out of scoring	inactive
Ptpn1	1	-0.48	1.48	1.3	enough cells to score	inactive
Syngr1	1	0.24	1.5	1.13	enough cells to score	inactive
Dennd2b	1	0.26	1.52	1.66	enough cells to score	inactive
Tcea2	1	-1.08	1.33	1.4	enough cells to score	inactive
Irs1	1	0.46	1.74	1.45	enough cells to score	inactive
Nrbp1	1	-1.8	1.31	1.22	enough cells to score	active
Cbr4	1	-0.67	1.42	1.8	enough cells to score	inactive
Pank3	1	-0.73	1.73	1.28	enough cells to score	inactive
Arhgap20	1	1.41	1.7	1.82	enough cells to score	inactive
Napa	1	0.73	1.8	1.79	enough cells to score	inactive
Or1ak2	1	1.46	1.83	1.62	enough cells to score	inactive
Npb	1	0.84	1.94	1.57	enough cells to score	inactive
Fem1c	1	2.16	1.86	1.75	enough cells to score	inactive
Fem1c	2		1.31	1.3	fewer than 50 cells per well; well left out of scoring	inactive
Prss2	1	-0.52	1.3	1.17	enough cells to score	inactive
Or9a4	1		1.26	0.915	fewer than 50 cells per well; well left out of scoring	inactive
Gcm2	1	-1.82	1.18	1.15	enough cells to score	active

7 consecutive entries from above:
Gene	reagent	p65 translocation robust z-score	nuclear/cytoplasmic p65 ratio, rep 1	nuclear/cytoplasmic p65 ratio, rep 2	low cell count flag	Call
Rhox5	1	-3.14	1.01	0.956	enough cells to score	active
Aqp9	1	0.52	1.74	1.65	enough cells to score	inactive
Foxn4	1	-0.49	1.51	1.41	enough cells to score	inactive
Zmym1	1	1.52	1.42	1.42	enough cells to score	inactive
Tmem101	1	0.36	1.46	1.5	enough cells to score	inactive
Zc3h12d	1	0.47	1.61	1.64	enough cells to score	inactive
Or8b50	1		1.54	1.13	fewer than 50 cells per well; well left out of scoring	inactive

More records:
Gene	reagent	p65 translocation robust z-score	nuclear/cytoplasmic p65 ratio, rep 1	nuclear/cytoplasmic p65 ratio, rep 2	low cell count flag	Call
Zfp692	1	-0.47	1.52	1.63	enough cells to score	inactive
Tmem223	1	-1.25	1.31	1.31	enough cells to score	inactive
Rps8	1	-1.34	1.21	1.09	enough cells to score	inactive
Anxa10	1	0.43	1.61	1.76	enough cells to score	inactive
Mymk	1		1.48	1.45	fewer than 50 cells per well; well left out of scoring	inactive
Clpx	1	0.01	1.44	1.41	enough cells to score	inactive
F2rl2	1		1.67	1.6	fewer than 50 cells per well; well left out of scoring	inactive
Aasdhppt	1	-0.6	1.25	1.5	enough cells to score	inactive
Ano4	1		1.23	0	fewer than 50 cells per well; well left out of scoring	inactive
Ski	1	-0.68	1.42	1.49	enough cells to score	inactive
Gpn2	1	0.47	1.59	1.85	enough cells to score	inactive
Abcc8	1	-1.3	1.47	1.42	enough cells to score	inactive
Abcc8	2	-0.38	1.44	1.57	enough cells to score	inactive
Riok3	1	-0.56	1.68	1.24	enough cells to score	inactive
Pak5	1	-1.37	0	1.2	enough cells to score	inactive
Spcs2	1	-1.13	1.25	1.28	enough cells to score	inactive
Hfe	1	0.65	1.57	1.42	enough cells to score	inactive
Mpst	1	0.37	1.48	1.39	enough cells to score	inactive
Zbtb33	1	-0.53	1.5	1.37	enough cells to score	inactive
Ddt	1	-1.01	1.4	1.55	enough cells to score	inactive
Aen	1		1.37	1.47	fewer than 50 cells per well; well left out of scoring	inactive
Styxl1	1	-0.68	1.48	1.54	enough cells to score	inactive
Adgrl4	1	-0.34	1.37	1.63	enough cells to score	inactive
Nxnl2	1	-0.06	1.22	1.34	enough cells to score	inactive
Synj2bp	1	1.12	1.59	1.24	enough cells to score	inactive
Glo1	1	1.69	1.62	1.63	enough cells to score	inactive
Tcf12	1	0.3	1.5	1.62	enough cells to score	inactive
Crebbp	1	-1.85	1.4	1.13	enough cells to score	active
Doc2g	1	1.3	1.29	1.53	enough cells to score	inactive
Csnk1g3	1		2.01	1.43	fewer than 50 cells per well; well left out of scoring	inactive
Csnk1g3	2	0.04	1.41	1.55	enough cells to score	inactive
Psme2b	1		1.43	1.21	fewer than 50 cells per well; well left out of scoring	inactive
Cyp26b1	1	0.53	1.5	2.04	enough cells to score	inactive
Agbl1	1	0.7	1.63	1.69	enough cells to score	inactive
